Laboratory results: paper PMC4442312 (eLife, 2015)
No constants are given. Whether binding was seen depends on the method and setting. Binding seen in cells or lysates may run through a third protein. Some entries that bind do so weakly or less than the wild type.

By UniProt entry, the sequences of proteins in these tests, tags left out.
UniProt Q96KQ7: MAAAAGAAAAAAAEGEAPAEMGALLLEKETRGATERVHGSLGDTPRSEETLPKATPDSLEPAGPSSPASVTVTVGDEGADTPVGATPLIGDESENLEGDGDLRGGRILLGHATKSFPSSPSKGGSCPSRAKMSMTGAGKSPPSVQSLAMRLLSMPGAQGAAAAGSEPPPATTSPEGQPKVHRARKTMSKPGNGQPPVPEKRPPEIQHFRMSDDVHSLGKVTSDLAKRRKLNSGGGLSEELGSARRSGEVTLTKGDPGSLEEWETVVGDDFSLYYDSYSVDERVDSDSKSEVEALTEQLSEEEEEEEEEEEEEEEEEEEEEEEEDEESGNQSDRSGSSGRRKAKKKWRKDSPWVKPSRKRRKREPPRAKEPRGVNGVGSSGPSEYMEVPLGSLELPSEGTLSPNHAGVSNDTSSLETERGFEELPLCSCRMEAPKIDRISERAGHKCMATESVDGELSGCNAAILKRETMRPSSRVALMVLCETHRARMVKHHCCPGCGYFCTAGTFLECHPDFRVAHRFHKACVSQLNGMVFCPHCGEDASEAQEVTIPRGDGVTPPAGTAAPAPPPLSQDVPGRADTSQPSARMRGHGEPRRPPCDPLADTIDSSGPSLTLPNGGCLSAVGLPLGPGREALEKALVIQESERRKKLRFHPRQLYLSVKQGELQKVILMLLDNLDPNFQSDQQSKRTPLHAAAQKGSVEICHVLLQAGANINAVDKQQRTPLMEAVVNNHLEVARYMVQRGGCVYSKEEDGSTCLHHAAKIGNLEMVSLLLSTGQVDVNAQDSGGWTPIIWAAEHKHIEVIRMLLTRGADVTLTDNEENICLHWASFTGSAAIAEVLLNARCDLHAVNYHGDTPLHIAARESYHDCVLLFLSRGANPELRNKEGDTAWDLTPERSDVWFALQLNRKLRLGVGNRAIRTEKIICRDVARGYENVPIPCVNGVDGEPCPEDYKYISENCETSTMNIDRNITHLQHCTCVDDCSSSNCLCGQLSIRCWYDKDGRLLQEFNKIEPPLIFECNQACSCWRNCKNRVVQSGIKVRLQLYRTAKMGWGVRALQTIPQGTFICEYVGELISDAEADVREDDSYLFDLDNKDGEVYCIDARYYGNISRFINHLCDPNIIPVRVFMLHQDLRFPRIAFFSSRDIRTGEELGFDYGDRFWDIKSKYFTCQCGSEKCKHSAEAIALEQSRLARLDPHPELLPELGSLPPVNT

Legend:
[1] = molecular target: T1, T7-ORCA (full-length) (human) (UniProt Q9UFC0); test: co-IP; co-IP after Benzonase treatment of the lysate (1000 U, 20 min RT); data not shown
T1 sequence: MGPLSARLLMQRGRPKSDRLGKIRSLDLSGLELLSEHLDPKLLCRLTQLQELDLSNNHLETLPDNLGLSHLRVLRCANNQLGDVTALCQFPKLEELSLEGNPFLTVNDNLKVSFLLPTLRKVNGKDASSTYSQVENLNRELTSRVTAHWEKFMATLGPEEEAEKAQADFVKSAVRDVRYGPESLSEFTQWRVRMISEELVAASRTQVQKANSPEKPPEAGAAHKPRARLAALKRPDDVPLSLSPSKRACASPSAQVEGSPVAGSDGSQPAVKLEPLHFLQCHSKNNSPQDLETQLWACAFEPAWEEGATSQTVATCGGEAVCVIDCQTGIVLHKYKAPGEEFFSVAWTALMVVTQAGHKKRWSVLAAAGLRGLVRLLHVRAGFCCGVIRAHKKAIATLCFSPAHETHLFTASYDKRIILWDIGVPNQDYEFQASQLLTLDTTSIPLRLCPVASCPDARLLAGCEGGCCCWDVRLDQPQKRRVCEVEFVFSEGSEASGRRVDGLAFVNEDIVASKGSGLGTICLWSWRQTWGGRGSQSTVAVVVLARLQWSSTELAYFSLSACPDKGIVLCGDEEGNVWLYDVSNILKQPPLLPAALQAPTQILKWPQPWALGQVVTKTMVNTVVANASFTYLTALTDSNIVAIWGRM

[2] = molecular target: T1, T7-ORCA (full-length) (human); test: co-IP; T7 antibody IP from co-transfected cells in the presence of ethidium bromide (50 μg/ml in lysate, 80 μg/ml in washes)
[3] = molecular target: T2, T7-ORCA (270–647) (human) (UniProt Q9UFC0); test: co-IP; transient co-transfection in U2OS; IP buffer 50 mM Tris pH 7.4, 150 mM NaCl, 10% glycerol, 0.1% NP-40, 1 mM DTT; antibody-conjugated agarose (ORCA, T7 or HA antibody) overnight; immunoblot; for G9a-Suv39H1 also in control and ORCA siRNA cells
T2 sequence: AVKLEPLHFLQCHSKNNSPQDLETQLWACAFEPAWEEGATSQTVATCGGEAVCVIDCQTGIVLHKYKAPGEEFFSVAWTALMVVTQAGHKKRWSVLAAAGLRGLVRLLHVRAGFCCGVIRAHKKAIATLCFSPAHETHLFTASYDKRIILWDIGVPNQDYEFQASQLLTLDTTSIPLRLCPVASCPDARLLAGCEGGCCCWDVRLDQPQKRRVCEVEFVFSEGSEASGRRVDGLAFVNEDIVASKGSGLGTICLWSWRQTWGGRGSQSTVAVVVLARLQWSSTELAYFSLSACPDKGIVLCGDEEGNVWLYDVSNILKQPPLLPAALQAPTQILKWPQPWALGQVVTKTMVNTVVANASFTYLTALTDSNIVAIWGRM

[4] = molecular target: T1, T7-ORCA (full-length) (human); test: as above
T7-ORCA (1–270) (human) = molecular target: T3, T7-ORCA (1–270) (human) (UniProt Q9UFC0); test: as above
T3 sequence: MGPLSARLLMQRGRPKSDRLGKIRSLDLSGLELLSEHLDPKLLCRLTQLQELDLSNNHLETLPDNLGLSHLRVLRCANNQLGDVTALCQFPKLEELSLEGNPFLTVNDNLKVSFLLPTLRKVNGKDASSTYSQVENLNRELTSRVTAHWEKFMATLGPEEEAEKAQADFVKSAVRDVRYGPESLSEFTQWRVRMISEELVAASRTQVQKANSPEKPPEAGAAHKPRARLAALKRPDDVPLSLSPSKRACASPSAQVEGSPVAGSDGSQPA

[5] = molecular target: T4, T7-ORCA (128–647) (human) (UniProt Q9UFC0); test: as above
T4 sequence: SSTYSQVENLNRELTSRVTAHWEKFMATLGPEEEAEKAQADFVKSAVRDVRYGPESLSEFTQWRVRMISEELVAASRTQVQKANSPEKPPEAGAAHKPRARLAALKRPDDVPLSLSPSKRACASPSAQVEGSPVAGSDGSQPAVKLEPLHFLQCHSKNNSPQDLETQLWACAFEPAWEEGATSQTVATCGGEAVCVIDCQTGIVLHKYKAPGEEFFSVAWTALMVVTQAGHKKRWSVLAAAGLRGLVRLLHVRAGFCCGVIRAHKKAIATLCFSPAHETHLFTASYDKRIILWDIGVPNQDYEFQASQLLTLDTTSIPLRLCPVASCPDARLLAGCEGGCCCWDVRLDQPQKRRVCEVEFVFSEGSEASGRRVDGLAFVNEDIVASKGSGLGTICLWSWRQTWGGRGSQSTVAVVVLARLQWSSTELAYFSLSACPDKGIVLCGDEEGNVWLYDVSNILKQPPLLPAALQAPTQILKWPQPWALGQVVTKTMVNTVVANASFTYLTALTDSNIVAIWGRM

T7-ORCA (1–127) (human) = molecular target: T5, T7-ORCA (1–127) (human) (UniProt Q9UFC0); test: as above
T5 sequence: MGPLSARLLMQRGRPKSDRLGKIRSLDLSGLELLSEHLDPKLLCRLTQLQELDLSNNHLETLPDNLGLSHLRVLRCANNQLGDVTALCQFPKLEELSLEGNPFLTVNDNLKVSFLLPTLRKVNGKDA

Substance: Flag-G9a (from UniProt Q96KQ7 1-1210) (enzyme)
- binding [1]: binds
- binding [2]: binds
- binding [3]: binds
- binding [4]: binds
- binding (T7-ORCA (1–270) (human)): no binding
- binding [5]: binds
- binding (T7-ORCA (1–127) (human)): binds
